{"source": "PubChem BioAssay AID1224830 (NIAID, 2016)", "purpose": "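Host factors that control LPS-induced TNF expression in human macrophages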 (primary screen)", "cells": "human THP-1 monocytic leukaemia cells, TNF dual-luciferase reporter clone, PMA-differentiated to macrophage-like cells", "reagents": "siRNA pool against human genes, 50 nM", "timing": "LPS for 4 h, given about 3 days after siRNA transfection", "treatment": "bacterial LPS (TLR4 ligand), 10 ng/ml", "detection": "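Ratio of firefly to renilla light, scaled to the plate median and expressed as a robust z-score per replicate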", "scale": "TNF reporter robust z-score: higher = stronger TNF reporter response to LPS", "hit rule": "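Each well counts as active if its z-score is over 2.8 or under -1.5; controls are left without a call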", "note": "The deposit covers about 18,000 reagents; shown is an unselected part. About 2,900 of all reagents (16%) were called active. 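Calls are made per well; low scores hint the gene aids the LPS response, high scores that it dampens it.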 Repeated entries: four replicate wells of each siRNA pool."}
{"Target gene": "MOG (GeneID 4340)", "TNF reporter robust z-score": -1.06, "Outcome": "inactive"}
{"Target gene": "MOG (GeneID 4340)", "TNF reporter robust z-score": -0.99, "Outcome": "inactive"}
{"Target gene": "MOG (GeneID 4340)", "TNF reporter robust z-score": -1.18, "Outcome": "inactive"}
{"Target gene": "MOG (GeneID 4340)", "TNF reporter robust z-score": -0.88, "Outcome": "inactive"}
{"Target gene": "ISG20 (GeneID 3669)", "TNF reporter robust z-score": 0.96, "Outcome": "inactive"}
{"Target gene": "ISG20 (GeneID 3669)", "TNF reporter robust z-score": 3.16, "Outcome": "active"}
{"Target gene": "ISG20 (GeneID 3669)", "TNF reporter robust z-score": 0.69, "Outcome": "inactive"}
{"Target gene": "ISG20 (GeneID 3669)", "TNF reporter robust z-score": 3.61, "Outcome": "active"}
{"Target gene": "SYCE1 (GeneID 93426)", "TNF reporter robust z-score": -0.54, "Outcome": "inactive"}
{"Target gene": "SYCE1 (GeneID 93426)", "TNF reporter robust z-score": -1.39, "Outcome": "inactive"}
{"Target gene": "SYCE1 (GeneID 93426)", "TNF reporter robust z-score": -1.05, "Outcome": "inactive"}
{"Target gene": "SYCE1 (GeneID 93426)", "TNF reporter robust z-score": -0.82, "Outcome": "inactive"}

Records listed so far called active:
{"Target gene": "ISG20 (GeneID 3669)", "TNF reporter robust z-score": 3.16, "Outcome": "active"}
{"Target gene": "ISG20 (GeneID 3669)", "TNF reporter robust z-score": 3.61, "Outcome": "active"}

Further reagents follow.
{"Target gene": "EIF3F (GeneID 8665)", "TNF reporter robust z-score": 0.95, "Outcome": "inactive"}
{"Target gene": "EIF3F (GeneID 8665)", "TNF reporter robust z-score": 2.33, "Outcome": "inactive"}
{"Target gene": "EIF3F (GeneID 8665)", "TNF reporter robust z-score": -0.22, "Outcome": "inactive"}
{"Target gene": "EIF3F (GeneID 8665)", "TNF reporter robust z-score": 1.42, "Outcome": "inactive"}
{"Target gene": "SLC9A7 (GeneID 84679)", "TNF reporter robust z-score": 0.05, "Outcome": "inactive"}
{"Target gene": "SLC9A7 (GeneID 84679)", "TNF reporter robust z-score": 0.55, "Outcome": "inactive"}
{"Target gene": "SLC9A7 (GeneID 84679)", "TNF reporter robust z-score": 0.41, "Outcome": "inactive"}
{"Target gene": "SLC9A7 (GeneID 84679)", "TNF reporter robust z-score": 0.42, "Outcome": "inactive"}
